In the series the test system is transgenic soybean seeds. As to the kind of experiment: C17 fatty acids in seeds of transgenic soybean. The series is classed as in vivo, Glycine max.

B1: GM-ALS_P178A_W555L: highly resistant allele (HRA) double mutant of Glycine max ALS1: P→A at 178 and W→L at 555 (protein)
chain: MAATASRTTRFSSSSSHPTFPKRITRSTLPLSHQTLTKPNHALKIKCSISKPPTAAPFTKEAPTTEPFVSRFASGEPRKGADILVEALERQGVTTVFAYPGGASMEIHQALTRSAAIRNVLPRHEQGGVFAAEGYARSSGLPGVCIATSGPGATNLVSGLADALMDSVPVVAITGQVARRMIGTDAFQETPIVEVSRSITKHNYLILDVDDIPRVVAEAFFVATSGRPGPVLIDIPKDVQQQLAVPNWDEPVNLPGYLARLPRPPAEAQLEHIVRLIMEAQKPVLYVGGGSLNSSAELRRFVELTGIPVASTLMGLGTFPIGDEYSLQMLGMHGTVYANYAVDNSDLLLAFGVRFDDRVTGKLEAFASRAKIVHIDIDSAEIGKNKQAHVSVCADLKLALKGINMILEEKGVEGKFDLGGWREEINVQKHKFPLGYKTFQDAISPQHAIEVLDELTNGDAIVSTGVGQHQMWAAQFYKYKRPRQWLTSGGLGAMGFGLPAAIGAAVANPGAVVVDIDGDGSFIMNVQELATIRVENLPVKILLLNNQHLGMVVQLEDRFYKSNRAHTYLGDPSSESEIFPNMLKFADACGIPAARVTKKEELRAAIQRMLDTPGPYLLDVIVPHQEHVLPMIPSNGSFKDVITEGDGRTRY
modifications: ALS1 variant P178A W555L
Regarding B1, the “levels of C17 fatty acids” value (SAMS promoter, most events) is listed as “only slightly elevated levels”. Where the note is “strong promoter SCP1, versus G. max elite or Jack germplasm”, the “C17 FAs level relative to wild type plants” value was “more than 10 ×”.
